Source: PubChem BioAssay AID1259308 (NCATS, 2017)

Purpose: 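Candidate targets for better recombinant protein yield in mammalian cells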 (primary screen)
Cell system: human HEK293 embryonic kidney cells stably expressing firefly luciferase (HEK-CMV-Luc2-Hygro)
Reagent: single siRNA against human genes, 0.8 pmol siRNA per well
Time to read-out: 72 h
Measurement: 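Reporter luminescence and viable-cell signal on separate replicate plates, given as percent of non-targeting control and median/MAD z-scores, plus per-cell luciferase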
Direction: total luciferase, z-score: higher = more reporter protein produced
Hit rule: 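Active when the median/MAD z-score for overall luciferase is greater than 3; a gene was taken forward for validation with new siRNAs if at least two of its three siRNAs passed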
Calls: active = raised luciferase; inactive = no rise
The deposit covers about 59,000 reagents; below is a part drawn at random. In the full data, about 1,510 (2.6%) were called active. 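Calls use total luciferase alone and ignore viability, so some active siRNAs may act by altering cell number.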 Entries without a mark were called inactive. Reagents against one gene are numbered here. Not all columns of the deposit are shown.

CXCL5 #1 scored total luciferase, z-score 0.196.
Depletion of CXCL5 #2 came out at: total luciferase, z-score 0.141.
With knock-down of CXCL5 #3, the record shows total luciferase, z-score -0.766.
Depletion of DHRS9 #1 resulted in: total luciferase, z-score -0.607.
After knock-down of DHRS9 #2, the record shows total luciferase, z-score -0.503.
For DHRS9 #3, the entry reads total luciferase, z-score -0.758.
PHOSPHO1 #1 scored total luciferase, z-score 0.137.
Against PHOSPHO1 #2 the deposit lists total luciferase, z-score 2.79.
For PHOSPHO1 #3, the values are total luciferase, z-score -1.26.
Knock-down of LRRN4 #1 resulted in: total luciferase, z-score 1.24.
LRRN4 #2 scored total luciferase, z-score -0.333.
Depletion of LRRN4 #3 resulted in: total luciferase, z-score -0.0828.
With knock-down of ASB16 #1, the record shows total luciferase, z-score -0.712.
With knock-down of ASB16 #2, the record shows total luciferase, z-score 0.476.
For ASB16 #3 the deposit lists total luciferase, z-score -0.895.
Silencing of TNPO2 #1 came out at: total luciferase, z-score 0.578.
Against TNPO2 #2 the deposit lists total luciferase, z-score -0.277.
Silencing of TNPO2 #3 gave: total luciferase, z-score 0.866.
After knock-down of VAV3 #1, the screen gave total luciferase, z-score -2.48.
VAV3 #2 showed total luciferase, z-score 1.45.
For VAV3 #3, the values are total luciferase, z-score 2.26.
CELF2-AS2 #1 showed total luciferase, z-score -1.02.
Against CELF2-AS2 #2, the entry reads total luciferase, z-score -1.43.
Against CELF2-AS2 #3, the entry reads total luciferase, z-score 0.226.
Against ACTL7A #1, the values are total luciferase, z-score 0.0939.
Knock-down of ACTL7A #2 resulted in: total luciferase, z-score 0.262.
With knock-down of ACTL7A #3 the results were total luciferase, z-score -0.588.
Depletion of AGPAT5 #1 came out at: total luciferase, z-score -0.563.
Against AGPAT5 #2, the entry reads total luciferase, z-score -0.972.
For AGPAT5 #3 the deposit lists total luciferase, z-score 2.36.
Against GANC #1, the values are total luciferase, z-score -0.407.
For GANC #2 the deposit lists total luciferase, z-score -0.577.
For GANC #3, the entry reads total luciferase, z-score -1.67.
